Source: US9839668B2, “Compositions and methods for the treatment of diseases related to the renin-angiotensin-system” (ATTOQUANT DIAGNOSTICS GMBH, priority 2013, dated 2017)
Some results were stated once for a whole list of compounds, not compound by compound.

System: Balb/c mice
Experiment: Plasma Ang 1-8 and Ang 1-7 levels in Balb/c mice after intra-peritoneal injection, LC-MS/MS
Type: in vivo, mouse
Conditions: 4 h after i.p. injection, 40 mg/kg (Lisinopril alone 50 mg/kg), baseline 55 pg/ml, lower quantification limit 2-3 pg/ml
Method: Mice were sacrificed 4 h following drug administration and blood was collected in the presence of protease inhibitors suitable for stabilization of angiotensin peptides in the collected sample. Following centrifugation of blood at 2500 g for 5 min at 4° C., Ang 1-8 and Ang 1-7 was quantified in the plasma samples by LC-MS/MS analysis.

| Structure (SMILES) | plasma Ang 1-8 level |
| --- | --- |
| C[C@H](CS)C(=O)N1CCC[C@H]1C(=O)O [Captopril] | 2 to 3 pg/mL |
| NCCCC[C@H](N[C@@H](CCc1ccccc1)C(=O)O)C(=O)N1CCC[C@H]1C(=O)O [Lisinopril] | 2 to 3 pg/mL |
